Data published in PubChem BioAssay AID504834 (National Center for Advancing Translational Sciences (NCATS), 2011).
Out of some 320,000 compounds screened, about 22,000 (6.9%) were called active. Inconclusive results, whose numbers are uncertain, are shown with a selection of clear calls. Calls come from the whole dose curve; as a rule, active = well fitted inhibition curve with a large enough effect; inconclusive = small, poorly fitted or top-dose-only effect, or another doubt; inactive = no such curve, though single readings can be large or run the other way. Potencies of inconclusive entries are doubtful fits and often do not repeat. A structure can be active in one record and inactive in another.
% is set by controls: 0 for no effect and ±100 for the full control effect; potency is the fitted concentration of half-maximal effect.

Assay: Primary qHTS for delayed death inhibitors of the malarial parasite plastid, 96 hour incubation
Conditions: P. falciparum luciferase reporter growth; series mostly up to 28.7 µM; activity change, negative = inhibition: at the top concentration
Method in brief: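 Readout is luminescence from an integrated firefly luciferase in P. falciparum. Red cells, 2% hematocrit and 0.05% parasitemia final, were cultured with compound through two parasite generations (96 hours) at 37 C, 5% CO2.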
With `CC(=O)Nc1ccc(SC[C@H](Cc2ccccc2)N2CC[C@@H](O)CCC2=O)cc1` the Potency was inconclusive: 4.15 µM [inhibitor, partial curve, poor fit].
For `Cc1ccc(NC(=O)CCn2c(=O)c3cccn3c3ccccc32)cc1C`, the “activity change, negative = inhibition” value was inactive: 12.5%.
In the case of `O=C(c1ccc(Cl)cc1)C1CCN(CC(=O)N2CCCCC2)CC1`, the Potency is reported as inconclusive: 18.5 µM [inhibitor, single point].
With `c1ccc(CCNc2cnccn2)cc1` the “activity change, negative = inhibition” value was inactive: 31.3%.
In the case of `COc1ccccc1C(=O)Nc1ccc(S(=O)(=O)NC2=NCCCCC2)cc1`, the Potency is reported as inconclusive: 11.7 µM [inhibitor, single point].
With `COc1cccc(N2CCN(CC(=O)Nc3ccccc3C(=O)NCCc3ccccc3)CC2)c1` the Potency was inconclusive: 18.5 µM [inhibitor, single point].
In the case of `COC(=O)c1ccc(COc2ccc3c4c(c(=O)oc3c2)CCC4)o1`, the “activity change, negative = inhibition” value is reported as inactive: 2.1%.
For `COc1ccc(-c2nc(CSCC(=O)NCC3CCCO3)c(C)o2)cc1OC` (stereo not drawn), the Potency was active: 14.7 µM.
With `COc1ccc(-n2nnnc2-c2ccccc2)cc1` the Potency was inconclusive: 0.522 µM [inhibitor, full curve, poor fit].
In the case of `Brc1cccc(OCCOCCn2ccnc2)c1`, the Potency is reported as inconclusive: 18.5 µM [inhibitor, single point].
For `O=C(NCc1ccc(Cl)cc1)Nc1ccc(F)cc1`, the Potency was inconclusive: 13.1 µM [inhibitor, partial curve].
In the case of `CC(C)Cc1ccc(CN2CCCC(NC(=O)Cn3cnnn3)C2)cc1` (stereo not drawn), the Potency is reported as inconclusive: 2.62 µM [inhibitor, partial curve, poor fit].
In the case of `C/C=C/Cn1c(SCc2ccc(C)cc2)nc2c1c(=O)[nH]c(=O)n2C`, the Potency is reported as inconclusive: 0.0026 µM [inhibitor, full curve, poor fit].
In the case of `CCC(NC(=O)CCc1ccccc1)c1ccccc1` (stereo not drawn), the Potency is reported as inconclusive: 10.4 µM [inhibitor, single point].
With `COc1ccc(S(=O)(=O)c2ccccc2)cc1NC(=O)c1c(F)cccc1F` the Potency was inconclusive: 8.28 µM [inhibitor, single point].
In the case of `CC(C(=O)NCCCc1ccccc1)n1cccc1C(=O)c1ccccc1` (stereo not drawn), the “activity change, negative = inhibition” value is reported as inactive: 39.2%.
With `COc1ccc(N(CC(=O)NCCSCc2ccco2)S(=O)(=O)c2ccc(C)cc2)cc1` the “activity change, negative = inhibition” value was inactive: 59.5%.
With `Nc1ccc(C(=O)OCC(=O)NC2CCCc3ccccc32)cc1[N+](=O)[O-]` (stereo not drawn) the Potency was inconclusive: 9.28 µM [inhibitor, single point].
In the case of `CCn1c(-c2ccc(C)cc2)nn(CC(=O)NCCc2ccccc2)c1=S`, the Potency is reported as inconclusive: 11.7 µM [inhibitor, single point].
For `CCN(CC)C(=O)c1ccc2c(c1)N(Cc1ccccc1)C(=O)CS2=O` (stereo not drawn), the Potency was inconclusive: 11.7 µM [inhibitor, single point].
With `CC(C)c1ccc(/C=C/C(=O)NCCCN2CCOCC2)cc1` the Potency was inconclusive: 9.28 µM [inhibitor, single point].
With `CCCC[C@]12Cc3cc(C#N)ccc3C(O1)c1c(c3ccccc3oc1=O)O2` the Potency was inconclusive: 2.39 µM [inhibitor, single point].
With `C=CCC1(Cl)C(=O)C(Cl)=C(N2CCN(C)CC2)C1(OC)OC` (stereo not drawn) the Potency was inconclusive: 3.7 µM [inhibitor, single point].
For `COc1ccc(N(CCC(=O)Nc2ccccc2F)S(=O)(=O)c2ccc(C)cc2C)cc1`, the Potency was inconclusive: 18.5 µM [inhibitor, partial curve, poor fit].
For `COC(=O)c1ccc(CN2C(=O)c3ccccc3C2=O)cc1`, the Potency was inconclusive: 18.5 µM [inhibitor, single point].
With `O=C(CCN1C(=O)C2C3C=CC(C4CC34)C2C1=O)Oc1ccc(Br)cc1` (stereo not drawn) the Potency was inconclusive: 18.5 µM [inhibitor, single point].
With `CCCCN(C(=O)Cc1ccc2c(c1)OCCO2)c1c(N)n(CC(C)C)c(=O)[nH]c1=O` the Potency was inconclusive: 10.4 µM [inhibitor, single point].
In the case of `COc1cccc(-c2c(C(=O)N/N=C/c3cccnc3)nnn2-c2nonc2N)c1`, the Potency is reported as inconclusive: 10.4 µM [inhibitor, single point].
In the case of `O=[N+]([O-])c1ccc(C(O)C[n+]2ccccc2)cc1` (stereo not drawn), the Potency is reported as active: 7.38 µM.
In the case of `S=C=Nc1ccccn1`, the Potency is reported as inconclusive: 1.31 µM [inhibitor, partial curve, poor fit].
With `O=C(NCCN1CCOCC1)c1cccn2c(=O)c3c4c(sc3nc12)CCCC4` the “activity change, negative = inhibition” value was inactive: -7.12%.
In the case of `COc1ccc(S(=O)(=O)N(Cc2ccco2)Cc2cc3ccccc3[nH]c2=O)cc1`, the Potency is reported as inconclusive: 18.5 µM [inhibitor, single point].
With `FC(F)(F)c1nnc2ccc(N3CCN(c4ccccc4)CC3)nn12` the Potency was inconclusive: 1.85 µM [inhibitor, partial curve, poor fit].
With `CC1S/C(=C(\C#N)C(=O)NCc2ccco2)N(Cc2ccco2)C1=O` (stereo not drawn) the Potency was inconclusive: 18.5 µM [inhibitor, single point].
With `Cc1c(Br)cc(C(=O)N2CCCCCC2)c(C)c1C` the Potency was inconclusive: 10.4 µM [inhibitor, single point].
In the case of `Cc1cccc(NC(=O)c2nc[nH]c2C(=O)N(C)Cc2ccccc2)c1`, the Potency is reported as inconclusive: 5.86 µM [inhibitor, single point].
With `O=C(c1ccccc1)N1N=C(c2ccccc2)CC1c1ccccc1` (stereo not drawn) the Potency was active: 2.33 µM.
With `Cc1ccc(C(=O)O/N=C/c2ccc(N(C)C)cc2)cc1` the “activity change, negative = inhibition” value was inactive: 7.61%.
In the case of `CC(=O)N1CCOc2ccc(S(=O)(=O)N3CCC(C(=O)NCc4ccccc4)CC3)cc21`, the Potency is reported as inconclusive: 4.15 µM [inhibitor, partial curve, poor fit].
For `C/C(CC(=O)Nc1cccc(Cl)c1Cl)=N\NC(=O)c1ccccc1Br`, the Potency was inconclusive: 11.7 µM [inhibitor, partial curve].
With `CCCOc1cc(N)ccc1C(=O)OCCN(CC)CC` the Potency was active: 0.721 µM.
With `Cc1cc(C)nc(NCC(O)CNc2ccccc2C)n1` (stereo not drawn) the Potency was inconclusive: 18.5 µM [inhibitor, single point].
For `COc1ccc(-c2cc3onc(-c4c(Cl)cccc4Cl)c3c(=O)n2C)cc1`, the Potency was inconclusive: 18.5 µM [inhibitor, single point].
In the case of `COc1ccc(CN2CCC(CO)(Cc3cccc(C(F)(F)F)c3)CC2)cc1Cn1cccn1`, the “activity change, negative = inhibition” value is reported as inactive: 156%.
For `CCOC(=O)CC(C(=O)OCC)P(=O)(c1ccccc1)c1ccccc1` (stereo not drawn), the Potency was inconclusive: 2.62 µM [inhibitor, full curve, poor fit].
With `Cc1ccc(-n2c(=O)c3sccc3n(Cc3cc(=O)n4ccccc4n3)c2=O)cc1F` the Potency was inconclusive: 10.4 µM [inhibitor, single point].
With `Cc1ccc(CNc2cnn(C34CC5CC(CC(C5)C3)C4)c(=O)c2Cl)cc1` the Potency was inconclusive: 18.5 µM [inhibitor, single point].
In the case of `Cc1cccc(-n2c(O)c(C=Nc3cc(O)ccc3C)c3ccccc3c2=O)n1`, the Potency is reported as inconclusive: 10.4 µM [inhibitor, single point].
In the case of `O=C(c1cc(S(=O)(=O)N2CCOCC2)ccc1Cl)N1CCOCC1`, the Potency is reported as inconclusive: 11.7 µM [inhibitor, single point].
For `CC1=NNC(=O)/C1=C\c1cn(-c2ccccc2)nc1-c1ccc(F)cc1`, the “activity change, negative = inhibition” value was inactive: 53.5%.
For `O=C(Cc1ccccc1Cl)Nc1cc(S(=O)(=O)N2CCOCC2)ccc1N1CCOCC1`, the Potency was active: 10.4 µM.
For `CC(C)n1c(N2CCN(CC(=O)NCc3cccs3)CC2)nc2ccccc21`, the Potency was inconclusive: 18.5 µM [inhibitor, single point].
With `COc1cccc(CC(=O)OC(C)C(=O)Nc2ccc(Cl)cn2)c1` (stereo not drawn) the “activity change, negative = inhibition” value was inactive: 7.3%.
For `Cc1ccccc1Nc1nc(-c2sc(NC(=O)c3cccc(Cl)c3)nc2C)cs1`, the Potency was inconclusive: 20.8 µM [inhibitor, partial curve, poor fit].
For `CCn1c(NCCCO)nc2c(c1=O)C(C)(CC)Cc1ccccc1-2` (stereo not drawn), the Potency was inconclusive: 4.15 µM [inhibitor, full curve, poor fit].
For `COc1ccc(-c2ccc(SCC(=O)Nc3cccc(C(C)=O)c3)nn2)cc1OC`, the Potency was inconclusive: 5.22 µM [inhibitor, partial curve, poor fit].
With `O=C(NC1CC1)C1=C[C@H](c2csc3ccccc23)C[C@H](OCCCCO)O1` the “activity change, negative = inhibition” value was inactive: -12.6%.
In the case of `OCCC1CN(Cc2cccc3c2OCO3)CCN1C1CCCC1` (stereo not drawn), the Potency is reported as inconclusive: 6.57 µM [inhibitor, single point].
For `COc1cc(/C=N/NC(N)=O)ccc1OCC(=O)Nc1cc(C)c(C)cc1Br`, the “activity change, negative = inhibition” value was inactive: -0.288%.
In the case of `CCOc1ccc(-c2nnc(NC(=O)CCCOc3cccc(C)c3)o2)cc1`, the Potency is reported as inconclusive: 14.7 µM [inhibitor, partial curve, poor fit].
For `CCNC(=O)CSc1nc2ccccc2c(=O)n1OC`, the Potency was inconclusive: 8.28 µM [inhibitor, partial curve].
For `CCN(C(=O)c1cc2c(=O)n3cccc(C)c3nc2n1CCCOC)C1CCCCC1`, the Potency was active: 9.28 µM.
In the case of `COC(=O)c1ccc(Cn2nnc3c(=O)[nH]c(C4CCCN(S(=O)(=O)c5ccc(C)cc5)C4)nc32)cc1` (stereo not drawn), the Potency is reported as inconclusive: 11.7 µM [inhibitor, single point].
With `CSc1ccc(/C=C/C(=O)N2CCCN(C)CC2)cc1` the “activity change, negative = inhibition” value was inactive: 109%.
In the case of `N#C/C(=C/c1ccc(-c2ccc(S(N)(=O)=O)cc2)o1)c1nc2ccccc2s1`, the “activity change, negative = inhibition” value is reported as inactive: 36.3%.
For `O=C(O)c1cccc(S(=O)(=O)Nc2ccc(O)c(Sc3nc4ccccc4s3)c2)c1`, the Potency was inconclusive: 18.5 µM [inhibitor, single point].
For `O=C(CNCc1ccc(Cl)cc1)N1CCc2ccccc2C1`, the “activity change, negative = inhibition” value was inactive: 35.5%.
With `Oc1cccc2nc3ccccc3nc12` the Potency was active: 11.7 µM.
